Results are given in words; binding and its absence hold for the method and conditions named. Some entries that bind do so weakly or less than the wild type.
Columns and labels:
Test in all cases: peptide or protein array; HuProt Human Proteome Microarray v4.0 (GST proteins spotted) incubated with recombinant PAK6 in 2% BSA, PBS, 0.05% Tween20 for 2 h at RT; detected with anti-PAK6 and fluorophore conjugated secondary antibody; hits by Z score > 2.5; both purified
[1] = target: T1, CCDC40 (human) (UniProt Q4G0X9)
T1 sequence: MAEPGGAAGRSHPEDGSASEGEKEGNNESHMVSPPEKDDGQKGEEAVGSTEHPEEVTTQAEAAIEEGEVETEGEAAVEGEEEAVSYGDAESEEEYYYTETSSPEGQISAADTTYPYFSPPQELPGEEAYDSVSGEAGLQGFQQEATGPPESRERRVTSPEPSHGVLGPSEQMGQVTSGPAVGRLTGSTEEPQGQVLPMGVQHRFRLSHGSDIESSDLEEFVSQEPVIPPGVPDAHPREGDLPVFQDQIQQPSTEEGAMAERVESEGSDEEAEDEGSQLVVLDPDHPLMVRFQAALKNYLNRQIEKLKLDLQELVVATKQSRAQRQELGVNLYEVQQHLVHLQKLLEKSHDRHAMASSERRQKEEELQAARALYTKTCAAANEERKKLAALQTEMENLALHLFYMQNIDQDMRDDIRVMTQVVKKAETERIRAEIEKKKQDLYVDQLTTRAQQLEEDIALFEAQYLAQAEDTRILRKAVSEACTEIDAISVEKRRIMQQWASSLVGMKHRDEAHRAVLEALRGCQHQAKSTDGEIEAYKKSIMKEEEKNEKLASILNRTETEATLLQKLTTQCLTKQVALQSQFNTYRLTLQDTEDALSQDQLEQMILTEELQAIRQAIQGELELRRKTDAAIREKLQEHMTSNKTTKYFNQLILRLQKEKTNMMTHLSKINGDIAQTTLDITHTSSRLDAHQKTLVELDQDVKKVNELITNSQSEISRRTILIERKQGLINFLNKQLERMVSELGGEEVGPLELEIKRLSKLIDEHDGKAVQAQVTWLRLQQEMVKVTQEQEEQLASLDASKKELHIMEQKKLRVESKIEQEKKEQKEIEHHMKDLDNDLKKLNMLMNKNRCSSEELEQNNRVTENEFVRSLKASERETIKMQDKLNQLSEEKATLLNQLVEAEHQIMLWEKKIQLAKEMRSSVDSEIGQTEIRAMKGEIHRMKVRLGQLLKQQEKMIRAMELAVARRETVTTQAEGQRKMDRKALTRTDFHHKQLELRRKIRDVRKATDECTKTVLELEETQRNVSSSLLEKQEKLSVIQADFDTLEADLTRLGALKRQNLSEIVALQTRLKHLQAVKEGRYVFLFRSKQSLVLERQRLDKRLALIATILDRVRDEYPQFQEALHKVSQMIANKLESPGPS

Chains of the proteins cited; added tags and fusions are not shown.
UniProt Q9NQU5: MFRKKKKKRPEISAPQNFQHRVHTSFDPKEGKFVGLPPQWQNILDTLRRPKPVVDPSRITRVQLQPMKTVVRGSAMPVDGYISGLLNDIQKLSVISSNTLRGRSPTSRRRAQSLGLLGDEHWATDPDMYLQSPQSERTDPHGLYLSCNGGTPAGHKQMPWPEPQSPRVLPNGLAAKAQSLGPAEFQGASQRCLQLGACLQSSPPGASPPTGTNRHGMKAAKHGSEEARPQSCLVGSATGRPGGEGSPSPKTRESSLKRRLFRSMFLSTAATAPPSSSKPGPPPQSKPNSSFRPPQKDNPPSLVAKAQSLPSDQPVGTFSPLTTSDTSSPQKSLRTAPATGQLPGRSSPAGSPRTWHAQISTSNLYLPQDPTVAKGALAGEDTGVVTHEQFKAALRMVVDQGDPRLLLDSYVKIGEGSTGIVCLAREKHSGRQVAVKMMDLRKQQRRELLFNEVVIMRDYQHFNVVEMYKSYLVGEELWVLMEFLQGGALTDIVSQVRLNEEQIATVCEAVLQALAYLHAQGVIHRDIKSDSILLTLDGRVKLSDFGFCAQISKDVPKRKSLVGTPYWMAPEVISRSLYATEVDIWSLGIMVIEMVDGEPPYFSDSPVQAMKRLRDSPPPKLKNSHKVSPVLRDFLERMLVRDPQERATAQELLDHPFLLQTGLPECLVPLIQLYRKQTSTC

[2] = target: T2, DRC3 (human) (UniProt Q9H069)
T2 sequence: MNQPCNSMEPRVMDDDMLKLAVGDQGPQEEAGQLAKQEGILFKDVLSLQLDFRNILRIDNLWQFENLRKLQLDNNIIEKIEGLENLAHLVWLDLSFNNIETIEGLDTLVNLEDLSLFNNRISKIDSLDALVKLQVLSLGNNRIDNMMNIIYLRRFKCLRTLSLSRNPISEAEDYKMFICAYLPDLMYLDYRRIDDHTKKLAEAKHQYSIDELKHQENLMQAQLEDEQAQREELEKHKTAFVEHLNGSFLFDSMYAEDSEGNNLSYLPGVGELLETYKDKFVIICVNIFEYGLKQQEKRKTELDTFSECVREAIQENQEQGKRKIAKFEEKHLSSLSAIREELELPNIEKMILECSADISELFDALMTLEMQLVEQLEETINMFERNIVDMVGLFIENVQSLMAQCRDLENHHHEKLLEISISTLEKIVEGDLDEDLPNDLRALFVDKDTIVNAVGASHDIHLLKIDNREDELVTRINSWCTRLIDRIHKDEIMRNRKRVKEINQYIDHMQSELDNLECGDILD

[3] = target: T3, CLUAP1 (human) (UniProt Q96AJ1)
T3 sequence: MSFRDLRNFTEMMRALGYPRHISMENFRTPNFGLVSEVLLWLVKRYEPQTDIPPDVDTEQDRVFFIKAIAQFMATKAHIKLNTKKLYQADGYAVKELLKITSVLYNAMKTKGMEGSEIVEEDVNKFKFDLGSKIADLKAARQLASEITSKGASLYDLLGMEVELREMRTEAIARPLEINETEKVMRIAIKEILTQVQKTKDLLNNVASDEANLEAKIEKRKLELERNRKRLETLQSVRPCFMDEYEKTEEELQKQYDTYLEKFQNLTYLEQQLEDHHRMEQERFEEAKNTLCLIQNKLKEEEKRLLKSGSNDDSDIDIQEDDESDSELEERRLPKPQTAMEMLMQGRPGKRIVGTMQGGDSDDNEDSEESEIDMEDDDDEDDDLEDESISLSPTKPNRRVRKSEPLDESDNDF

[4] = target: T4, ENTR1 (human) (UniProt Q96C92)
T4 sequence: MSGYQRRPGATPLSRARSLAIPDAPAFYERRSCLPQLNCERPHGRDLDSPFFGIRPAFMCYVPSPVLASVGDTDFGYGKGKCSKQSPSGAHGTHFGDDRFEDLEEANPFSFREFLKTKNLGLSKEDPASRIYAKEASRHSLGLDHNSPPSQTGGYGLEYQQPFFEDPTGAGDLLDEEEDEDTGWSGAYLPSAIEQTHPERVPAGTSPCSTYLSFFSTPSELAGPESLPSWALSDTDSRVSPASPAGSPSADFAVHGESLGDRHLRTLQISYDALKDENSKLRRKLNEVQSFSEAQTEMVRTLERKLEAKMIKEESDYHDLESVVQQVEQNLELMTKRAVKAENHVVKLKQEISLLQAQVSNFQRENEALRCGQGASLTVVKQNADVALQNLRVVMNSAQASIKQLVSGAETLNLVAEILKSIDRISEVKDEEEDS

[5] = target: T5, SUFU (human) (UniProt Q9UMX1)
T5 sequence: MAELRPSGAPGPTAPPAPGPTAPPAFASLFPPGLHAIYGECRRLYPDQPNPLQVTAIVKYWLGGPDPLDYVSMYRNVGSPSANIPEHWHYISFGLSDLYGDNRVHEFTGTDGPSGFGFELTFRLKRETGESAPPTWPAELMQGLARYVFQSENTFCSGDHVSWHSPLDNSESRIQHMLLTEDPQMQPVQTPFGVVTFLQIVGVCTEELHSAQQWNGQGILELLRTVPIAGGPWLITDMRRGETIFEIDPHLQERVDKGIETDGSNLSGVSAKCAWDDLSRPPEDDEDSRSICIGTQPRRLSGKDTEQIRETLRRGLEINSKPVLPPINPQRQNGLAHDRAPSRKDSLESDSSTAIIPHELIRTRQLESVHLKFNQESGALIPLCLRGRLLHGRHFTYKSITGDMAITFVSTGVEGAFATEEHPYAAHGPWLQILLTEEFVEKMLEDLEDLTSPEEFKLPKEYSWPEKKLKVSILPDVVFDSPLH

Measured: binding

Recombinant full-length human PAK6 (ThermoFisher, #PR5307A) (from UniProt Q9NQU5 1-681) (enzyme)
binds: all assays above

— PMC11487180
